According to patent US20240426824A1, “METHODS RELATING TO TREATMENT OF ACUTE MYELOID LEUKEMIA” (BOARD OF REGENTS, THE UNIVERSITY OF TEXAS SYSTEM, priority 2021, published 2024):
Entries after “also recorded” stand apart in the source; their conditions may differ. At least one compound was matched to its structure with a doubt left.

Assays:
[1] = test system: MOLM-13-VTX-res VTX-resistant cell line; assay: Immunoblot protein expression after VTX treatment, MOLM-13-VTX-res cells; assay type: cell-based; settings: 24 hr post 100 nM VTX treatment
[2] = test system: OCI-3 VTX-resistant cell line; assay: Immunoblot protein expression after VTX treatment, OCI-3 cells; assay type: cell-based
[3] = test system: adult patients with newly diagnosed AML; assay: Clinical outcome of VTX-containing induction chemotherapy, clusters by 36-protein classifier (Example 2); assay type: in vivo, human; settings: C1
Text: Sample Collection and Processing. Peripheral blood (PB) and bone marrow (BM) samples were collected from 818 adult patients with newly diagnosed AML, of which 143 received VTX-containing induction chemotherapy, evaluated at the University of Texas MD Anderson Cancer Center (MDACC) between January 2012 and July 2020. Informed consent was obtained in accordance with the Declaration of Helsinki. Samples were processed and analyzed under an Investigational Review Board (IRB) approved laboratory protocol (Lab 06-0565).
Following data normalization, a cohort of 143 patients that received VTX-containing induction chemotherapy was identified for separate analysis for the purposes of this manuscript. Survival curves were generated by Kaplan-Meier method and survival data was analyzed by multivariate cox regression model. [Refs. 12, 13] Protein expression signatures were identified by hierarchical Progeny clustering. [Ref. 14] Correlations between clustered protein signatures and clinical features were assessed using Fisher's exact test for categorical variables and the Kruskal-Wallis test for continuous variables. Multivariate analysis for survival outcomes OS and RD was performed by Cox regression model. Median protein expression within clusters was compared to median expression in the normal controls to identify significant expression trends with the Wilcoxon test. […]

[4] = test system: MOLM-13 parental VTX-sensitive cell line; assay: Immunoblot protein expression after VTX treatment, MOLM-13 parental cells; assay type: cell-based
[5] = 24 hr post 100 nM VTX treatment, immunoblot

## CC1(C)CCC(CN2CCN(c3ccc(C(=O)NS(=O)(=O)c4ccc(NCC5CCOCC5)c([N+](=O)[O-])c4)c(Oc4cnc5[nH]ccc5c4)c3)CC2)=C(c2ccc(Cl)cc2)C1 [VTX, venetoclax]
[1]
  SYK expression: induced; also recorded: inducing
[2]; 24 hours post VTX treatment
  PKM2 expression: either remained unchanged or were induced
  STAT3.pS727 expression: either remained unchanged or were induced
[2]; [5]
  CBL expression: induced; also recorded: increasing
  SYK expression: induced; also recorded: inducing
[3]
  median remission duration: median not reached
[4]; 24 hours post treatment with VTX, preliminary results
  STAT3.pS727 expression: reduction
[4]; [5]
  CBL expression: significant downregulation; also recorded: attenuating
  SYK expression: significant downregulation; also recorded: reduces
